For at least one compound, name, drawing or mass did not settle the structure.
Tested on: human drug metabolism genes
Assay: Induction of mRNAs involved in drug metabolism in cultured hepatocytes from chimeric mice (real-time PCR)
Conditions: FIG. 7
Excerpt: The basal expression and induction of human liver specific genes in chimeric mice was examined. […] Primers, obtained from Applied Biosystems, were specific for human CYP1A1 (Hs00153120_m1), CYP1A2 (Hs00167927_m1), CYP3A4 (Hs00430021_m1), CYP3A7 (Hs00426361_a1), CYP2B6 (Hs00167937_g1), CYP2D6 (Hs00164385_a1), Multidrug resistance associated protein MRP2 (Hs00166123_m1), Bile Salt export Pump BSEP, (Hs00184829_m1), CAR (Hs00231959_m1) Albumin (Hs00609411_m1), HNF4α (Hs00230853_m1), Cyclophillin (Hs99999904_m1) and mouse actin (Ma00607939_s1).
Cultures of isolated hepatocytes were established and exposed to prototypical inducers of the cytochrome P450 genes. […] In addition to the mRNA expression levels of human drug metabolism genes, the enzymatic activity of the human CYP1A and 3A family members were measured. Ethoxyresorufin-O-deethylase activity (EROD) is known to be mediated by CYP1A1 and 1A2 in human liver.

`CO[C@H]1/C=C/O[C@@]2(C)Oc3c(C)c(O)c4c(O)c(c(/C=N/N5CCN(C)CC5)c(O)c4c3C2=O)NC(=O)/C(C)=C\C=C\[C@H](C)[C@H](O)[C@@H](C)[C@@H](O)[C@@H](C)[C@H](OC(C)=O)[C@@H]1C` [rifampicin] was tested, and the “pattern of genes induced” value was “as expected from normal human cells”.

From US8569573B2 (priority 2007, dated 2013)
